PubChem BioAssay AID1224830 – NIAID – 2016

- Test: 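Host factors that control LPS-induced TNF expression in human macrophages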 (primary screen)
- Cell system: human THP-1 monocytic leukaemia cells, TNF dual-luciferase reporter clone, PMA-differentiated to macrophage-like cells
- Reagents: siRNA pool against human genes, 50 nM
- Duration: LPS for 4 h, given about 3 days after siRNA transfection
- Treatment: bacterial LPS (TLR4 ligand), 10 ng/ml
- Measurement: 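TNF firefly reporter luminescence divided by renilla, normalised to the plate median, then turned into a robust z-score for each replicate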
- Reading the numbers: TNF reporter robust z-score: higher = stronger TNF reporter response to LPS
- Rule for the call: 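a well is active when its z-score exceeds 2.8 or falls below -1.5; control wells carry no call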
The deposit covers about 18,000 reagents; below is a part drawn at random. About 2,900 of them (16%) were called active. 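Calls are made per well; low scores hint the gene aids the LPS response, high scores that it dampens it.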 Repeated entries: four replicate wells of each siRNA pool.

no.	target	TNF reporter robust z-score	call
1	BHMT2	-1.42	inactive
2	BHMT2	-1.02	inactive
3	BHMT2	-0.91	inactive
4	BHMT2	-1.67	active
5	NIPAL2	2.05	inactive
6	NIPAL2	0.69	inactive
7	NIPAL2	0.26	inactive
8	NIPAL2	-1.18	inactive
9	LIPC	0.43	inactive
10	LIPC	-0.18	inactive
11	LIPC	-0.08	inactive
12	LIPC	1.08	inactive
13	HES5	-1.09	inactive
14	HES5	-0.19	inactive
15	HES5	-0.81	inactive
16	HES5	0.22	inactive
17	SLC38A12	0.84	inactive
18	SLC38A12	-0.23	inactive
19	SLC38A12	-0.18	inactive
20	SLC38A12	-0.09	inactive
21	SGF29	-0.09	inactive
22	SGF29	-0.04	inactive
23	SGF29	0.83	inactive
24	SGF29	0.95	inactive
25	MFAP1	-0.82	inactive
26	MFAP1	-1.54	active
27	MFAP1	-1.65	active
28	MFAP1	-0.8	inactive
29	CHAC1	3.68	active
30	CHAC1	1.31	inactive
31	CHAC1	0.26	inactive
32	CHAC1	1.01	inactive
33	ERICH1	-1.07	inactive
34	ERICH1	1.11	inactive
35	ERICH1	-0.04	inactive
36	ERICH1	-0.23	inactive
37	DHX38	1.63	inactive
38	DHX38	3.85	active
39	DHX38	2.56	inactive
40	DHX38	0.4	inactive
41	LOC644006	0.53	inactive
42	LOC644006	0.12	inactive
43	LOC644006	1.17	inactive
44	LOC644006	1.42	inactive
45	AMACR	-0.78	inactive
46	AMACR	-1.09	inactive
47	AMACR	-1.23	inactive
48	AMACR	-0.68	inactive
49	FAM228A	-0.21	inactive
50	FAM228A	-0.82	inactive
51	FAM228A	-1.55	active
52	FAM228A	-0.39	inactive
53	GATB	-1.02	inactive
54	GATB	0.01	inactive
55	GATB	0.04	inactive
56	GATB	-0.48	inactive
57	ZRANB3	-0.96	inactive
58	ZRANB3	-0.06	inactive
59	ZRANB3	-0.18	inactive
60	AFAP1L1	-0.13	inactive
61	AFAP1L1	1.36	inactive
62	AFAP1L1	0.01	inactive
63	AFAP1L1	-0.22	inactive
64	MAD2L1BP	-0.26	inactive
65	MAD2L1BP	0.18	inactive
66	MAD2L1BP	-0.07	inactive
67	MAD2L1BP	-0.46	inactive
68	NDUFS7	-1.31	inactive
69	NDUFS7	-0.88	inactive
70	NDUFS7	-0.95	inactive
71	NDUFS7	-0.55	inactive
72	ABCB7	0.28	inactive
73	ABCB7	1.08	inactive
74	ABCB7	0.9	inactive
75	ABCB7	2.5	inactive
76	PDC	2.8	active
77	PDC	0.91	inactive
78	PDC	-0.5	inactive
79	PDC	-0.23	inactive
80	RTN4R	-0.75	inactive
81	RTN4R	-0.17	inactive
82	RTN4R	-0.64	inactive
83	RTN4R	-0.28	inactive
84	OBP2B	-0.9	inactive
85	OBP2B	0.01	inactive
86	OBP2B	0.14	inactive
87	OBP2B	-0.12	inactive
88	LGALS4	-0.49	inactive
89	LGALS4	0.52	inactive
90	LGALS4	-0.33	inactive
91	LGALS4	0.07	inactive
92	CFHR4	-0.57	inactive
93	CFHR4	-0.34	inactive
94	CFHR4	-0.24	inactive
95	CFHR4	-0.6	inactive
96	ARHGAP44	0.62	inactive
97	ARHGAP44	2.61	inactive
98	ARHGAP44	0.68	inactive
99	ARHGAP44	0.56	inactive
100	FAM3D	-0.68	inactive
101	FAM3D	-0.04	inactive
102	FAM3D	0.36	inactive
103	FAM3D	-0.45	inactive
104	H2BC5	0.98	inactive
105	H2BC5	0.78	inactive
106	H2BC5	1.36	inactive
107	H2BC5	-0.2	inactive
108	CDH20	-0.59	inactive
109	CDH20	-0.04	inactive
110	CDH20	-1.17	inactive
111	CDH20	-0.41	inactive
